Test results published in PubChem BioAssay AID2685 (National Center for Advancing Translational Sciences (NCATS), 2010).
Among all 320,000 compounds or so, about 2,100 (0.66%) were called active. Inconclusive means that the source gave no clear call. Such entries were picked first, then a sample of the others. Calls follow the shape of the dose curve; as a rule, active = well fitted inhibition curve with a large enough effect in the signal ratio, with a control signal flat (not every such curve was filed as active); inconclusive = small, poorly fitted or top-dose-only effect, or effect the other way, or a change in a side signal; inactive = flat fitted curve, though single readings scatter; the % refers to the signal ratio. Where the call is inconclusive, the potency comes from a doubtful curve fit.

assay: qHTS Assay for Lipid Storage Modulators in Drosophila S3 Cells; details: BODIPY lipid droplet fluorescence, 18-24 h, cells fed with added oleic acid; lipid storage change, negative = inhibition: at 46.1 µM (top of the series) unless noted
Method in brief: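 Drosophila S3 cells loaded with oleic acid (400 uM, as added) and compounds at several concentrations; lipid droplets imaged by 488-nm laser-scanning cytometry, 500–530 nm intensity and object ratio to cell channel. Percent activity normalized to 20 uM Triacsin C.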
% is scaled to controls: 0 for no effect and ±100 for the full control effect; potency is read from the fitted curve at half-maximal effect.

| Compound | Potency | lipid storage change, negative = inhibition |
| --- | --- | --- |
| Cc1cccc(C(=O)n2c(=S)nc3ccccn32)c1 | inconclusive: 2.59 µM [activator, full curve] |  |
| N#CC1(NC(=O)CSc2nc3ccc([N+](=O)[O-])cc3s2)CCCCC1 |  | inconclusive |
| CC1=CC2=NC(=O)/C(=C/c3cccn3Cc3ccccc3)C(=N)N2O1 |  | inconclusive: 3.1% |
| CCOC(=O)C1CCN(C(=O)c2cc(COc3ccc(F)cc3F)on2)CC1 |  | inconclusive: 41.9% |
| Cc1ccc(NC2CCCN(C(=O)CCC(=O)c3ccccc3)C2)cc1C (stereo unspecified) | inconclusive: 0.058 µM [falling, partial curve, poor fit] |  |
| COc1ccc([C@H]2C=C(C(=O)O)O[C@@H](OCCCCO)C2)cc1 | inconclusive: 9.2 µM [activator, partial curve] |  |
| Cn1c(=O)[nH]c(=O)c2c1[nH]c(=S)n2CCCc1ccccc1 |  | inconclusive: -100% |
| COc1ccc(CCC(=O)OCC(=O)N(CC(C)C)c2c(N)n(Cc3ccccc3)c(=O)[nH]c2=O)cc1 |  | inconclusive |
| COC(=O)c1ccc(CNC(=O)c2ccc(NS(=O)(=O)c3ccc4[nH]c(=O)[nH]c4c3)cc2)cc1 |  | inconclusive: 18.3% |
| Cc1nc2nc[nH]n2c(=O)c1NC(=O)CC12CC3CC(CC(C3)C1)C2 | inconclusive: 5.8 µM [falling, full curve, poor fit] |  |
| CCOC(=O)C1=NN(c2ccccc2)C2=NC(C)=C(C(=O)OC)C(c3ccc(C)cc3)N12 (stereo unspecified) |  | inconclusive: 36.7% |
| O=C(NNc1nc2cc3c(cc2s1)OCO3)c1ccccc1 |  | inconclusive: 47.5% |
| COc1ccc(CNC(=S)N/N=C(/C)c2ccccc2)cc1 |  | inconclusive: 29.8% |
| COc1ccc(Nc2nc(N)nc(CSC(=S)N3CCN(c4ccccc4)CC3)n2)cc1 |  | inconclusive: -7.63% |
| CC(=O)Nc1ccc(S(=O)(=O)N(CC(=O)Nc2cc(C)on2)Cc2ccc(F)cc2)cc1 |  | inconclusive: 11.5% |
| CC1Cc2ccccc2N1C(=O)COC(=O)CCc1nc2ccccc2c(=O)[nH]1 (stereo unspecified) |  | inconclusive: -2.05% [at 9.22 µM] |
| CN(C)S(=O)(=O)c1cc(NC(=O)COC(=O)C2CSC3(C)CCC(=O)N23)ccc1Cl (stereo unspecified) |  | inconclusive: -4.49% |
| O=C(CCN1CCC(c2ccccc2)C1)c1cccs1 (stereo unspecified) | inconclusive: 23.1 µM [activator, single point] |  |
| Cc1ccc(S(=O)(=O)N(C)CC(=O)N2CCN(Cc3ccccc3)CC2)cc1 |  | inconclusive: 99.9% |
| Cc1ccc(Sc2cc(C(F)(F)F)nc(N(C)C)n2)cc1 | inconclusive: 0.146 µM [falling, full curve, poor fit] |  |
| Cc1cccc(NC(=O)Nc2ccc([N+](=O)[O-])cc2)n1 |  | inconclusive: 21.6% |
| CC1CCCCN1C(=O)COC(=O)c1cc([N+](=O)[O-])ccc1N1CCOCC1 (stereo unspecified) |  | inconclusive: 27.3% |
| Cc1cc(=O)oc2cc(OCC(=O)Nc3nnc(C4CC4)s3)ccc12 |  | inconclusive: 20.9% |
| CC(C)[C@H]1COCCS(=O)(=O)N1Cc1cccc(Cl)c1 |  | inconclusive: -24.1% |
| O=C(CCC(=O)N(CC(=O)NC1CCCC1)Cc1cccs1)Nc1nccs1 |  | inconclusive: 17.6% |
| Cc1nn(-c2ccc(F)cc2)c(Cl)c1/C=C(\CCC(=O)O)c1nc2ccccc2s1 |  | inconclusive: 19.5% |

| Compound | Potency | lipid storage change, negative = inhibition |
| --- | --- | --- |
| CCc1ccc(NC(=O)CSc2nc(=O)n(CCCN(C)C)c3c2CCC3)cc1 |  | inconclusive: -8.13% |
| O=C(Cc1cccs1)Nc1nc(-c2ccc(F)c(F)c2)cs1 | inconclusive: 18.4 µM [activator, partial curve, poor fit] |  |
| FC(F)(F)c1ccc(-c2nnc(-c3cccnc3)o2)cc1 | inconclusive: 29.1 µM [falling, single point] |  |
| COc1cccc(NC(=O)CSc2nnc(Cn3nnc4ccccc43)n2C)c1 |  | inactive: -5.06% |
| COCCCN=Cc1c(-c2ccccc2)[nH]n(-c2nc3ccccc3s2)c1=O |  | inconclusive: 40.8% |
| COc1cc(CCNC(=O)c2cnn3ccccc23)cc(OC)c1OC |  | inconclusive: -12.6% |
| O=C(OCCOCCN=C1NS(=O)(=O)c2ccccc21)c1ccc(F)cc1 | active: 1.64 µM |  |
| CCN(CC)S(=O)(=O)c1ccc(OC)c(NC(=S)Nc2cccc(C)c2C)c1 | inconclusive: 9.2 µM [activator, partial curve] |  |
| O=C(NCc1ccccn1)c1cc(S(=O)(=O)N2CCCCCC2)ccc1Cl |  | inconclusive: -16.5% |
| CCc1ccccc1NC(=O)C1(S(=O)(=O)c2ccc(C)cc2)CC1 | inconclusive: 29.1 µM [activator, single point] |  |
| O=C(CNC(=O)c1cccs1)OCC(=O)c1ccc(Cl)cc1 |  | inconclusive: -3.87% |
| COc1cc(-c2nc3n(n2)C(c2ccncc2)C(C(N)=O)=C(C)N3)cc(OC)c1OC (stereo unspecified) |  | inconclusive: 9.32% |
| Cc1ccc(C)c(NC(=O)CSc2cccc3cccnc23)c1 |  | inconclusive: -40.8% |
| COc1cc2cc(C(=O)N/N=C/c3ccc(F)cc3)[nH]c2cc1OC |  | inconclusive: 88.5% |
| O=C(c1ccccc1F)N1CCN(c2ccccn2)CC1 |  | inconclusive: 87.1% |
| COc1ccccc1CCc1nnc(CCC(=O)NC(C)Cc2cccc(C)n2)o1 (stereo unspecified) |  | inconclusive: 2.72% |
| Cc1ccc(CNC(=O)CCS(=O)(=O)c2ccc3c(c2)NC(=O)C(C)S3)cc1 (stereo unspecified) |  | inconclusive: 20.1% |
| CCOc1ccc(NC(=O)NCCN2CCN(c3ccccc3F)CC2)cc1 |  | inconclusive: 1.08% |
| O=C(CSc1ncnc2ccccc12)Nc1ccc(N2CCOCC2)cc1 | inconclusive: 20.6 µM [activator, single point] |  |
| COC(=O)C1=CN(C2CC2)C=C(C(=O)OC)C1c1ccccc1OC | inconclusive: 1.64 µM [activator, partial curve] |  |
| Clc1ccccc1-c1nnc2sc(-c3ccncc3)nn12 | inconclusive: 0.231 µM [activator, full curve] |  |
| Cc1nnc(SC(C)C(=O)N(C)C2CCCCC2)n1N (stereo unspecified) | inconclusive: 0.92 µM [activator, full curve, poor fit] |  |
| COc1ccc2oc(=O)c(C(=O)Nc3ccccc3C)cc2c1 | inconclusive: 29.1 µM [falling, single point] |  |
| CNC(=O)CCn1nc(-c2ccc(Cl)cc2)c2ccccc2c1=O | inconclusive: 2.91 µM [activator, partial curve] |  |
| CC1(C)CC(=O)C=C(Nc2ccc(C(=O)O)c(O)c2)C1 |  | inconclusive: 61.6% |
| CN(C)c1ccc(S(=O)(=O)NCC(=O)OCC(=O)c2ccc[nH]2)cc1[N+](=O)[O-] |  | inconclusive: 74.6% |

Look-ups from the results shown.
In lipid storage change, negative = inhibition, `O=C(NCc1ccccn1)c1cc(S(=O)(=O)N2CCCCCC2)ccc1Cl` is entered as inconclusive: -16.5%
In lipid storage change, negative = inhibition, `O=C(CNC(=O)c1cccs1)OCC(=O)c1ccc(Cl)cc1` is entered as inconclusive: -3.87%
In lipid storage change, negative = inhibition, `COc1cc(-c2nc3n(n2)C(c2ccncc2)C(C(N)=O)=C(C)N3)cc(OC)c1OC` (stereo unspecified) is entered as inconclusive: 9.32%
In Potency, `COc1ccc2oc(=O)c(C(=O)Nc3ccccc3C)cc2c1` is entered as inconclusive: 29.1 µM [falling, single point]
In lipid storage change, negative = inhibition, `COc1cccc(NC(=O)CSc2nnc(Cn3nnc4ccccc43)n2C)c1` is entered as inactive: -5.06%

Later entries.

| Compound | Potency | lipid storage change, negative = inhibition |
| --- | --- | --- |
| CCc1c(C)nc(SCCOc2ccc(OC)cc2)[nH]c1=O |  | inconclusive: 52.7% [activator] |
| COc1ccc(N2C(=O)CCC(C(=O)NCCN3CCOCC3)C2c2ccc(OC)c(OC)c2)cc1 (stereo unspecified) | inconclusive: 0.092 µM [falling, full curve, poor fit] |  |
| COc1ccc(NC(=O)CCN2CCCCC2)cc1 | active: 18.4 µM |  |
| Cc1occc1C(=O)NNC(=S)Nc1ccccc1C(F)(F)F |  | inconclusive: 1.95% |
| O=S(=O)(c1cc(Cl)ccc1Cl)N1CCNCC1 |  | inconclusive: -0.343% |
| Cc1ccccc1C(=O)N(C)c1ccccc1C(=O)NCc1ccccc1 |  | inconclusive: 5.72% |
| Cn1c(-c2cc3ccccc3oc2=O)nc2ccccc21 |  | inconclusive: -0.638% |
| O=C1CCCc2c1cc(C(=O)Nc1ccc(Cl)cn1)c(=O)n2-c1ccccc1 | inconclusive: 8.2 µM [activator, partial curve] |  |
| CCOC(=O)c1ccc(NC(=O)c2ccco2)cc1 |  | inconclusive: -100% |
| COc1ccc(C)cc1NC(=S)NN1CCN(C)CC1 |  | inconclusive: 5.62% |
| CC(C)(C)c1ccc(NC(=O)C2=CN3CCS(=O)(=O)N=C3C=C2)cc1 | inconclusive: 3.66 µM [activator, single point] |  |
| Cc1ccc(Nc2nc(-c3cccnc3)cs2)cc1Cl | inconclusive: 25.9 µM [activator, single point] |  |
| O=S(=O)(c1ccc(Cl)cc1)c1cnc2ccccc2n1 | active: 29.1 µM |  |
| CCN(Cc1ccncc1)C(=O)C1CCC(=O)N(Cc2ccc(Cl)cc2)C1 (stereo unspecified) |  | inconclusive: 11.8% |
| COc1ccc(C(=O)OCN2C(=O)c3ccccc3C2=O)cc1 |  | inconclusive: 9.47% |
| C[C@@H]1CC=C[C@H]2[C@H]1C(=O)N(Cc1ccccc1)[C@H]2c1ccc(-c2ccoc2)cc1F |  | inconclusive: -6.6% |
| O=C(O)c1ccc(Nc2ccc3nonc3c2[N+](=O)[O-])cc1 | inconclusive: 29.1 µM [activator, single point] |  |
| O=C(/C=C/c1ccco1)NC(=S)Nc1cccc(C(=O)O)c1 |  | inconclusive: 15.1% |
| CN(C)c1ccc(-c2nn3c(-c4cccnc4)nnc3s2)cc1 | inconclusive: 0.092 µM [activator, full curve, poor fit] |  |
| COc1ccc(S(=O)(=O)N2CC(C)N(C(=O)N(C)C)C2C(C)C)cc1 (stereo unspecified) |  | inconclusive: 26.2% |
| O=C(Nc1cccc([N+](=O)[O-])c1)Nc1ccc2c(c1)CCC2 | inconclusive: 0.184 µM [falling, full curve, poor fit] |  |
| Fc1cccc(/C=N/n2c(C3CCCCC3)n[nH]c2=S)c1 |  | inconclusive: -48.6% |
| Nc1nnc(C2CCCC2)s1 | inconclusive: 0.651 µM [falling, single point] |  |
| COc1ccc(CCN2CC3=C(C2=O)C(c2ccccc2)NC(=O)N3C)cc1OC (stereo unspecified) | inconclusive: 29.1 µM [activator, single point] |  |
